Source: the supplement of paper PMC7666118
The list shows a part of the results.

The chains behind the UniProt entries cited, without tags or fusion partners. Where a name states a change or a piece, a line headed by the entry shows the natural chain unless it says otherwise.
UniProt P24666: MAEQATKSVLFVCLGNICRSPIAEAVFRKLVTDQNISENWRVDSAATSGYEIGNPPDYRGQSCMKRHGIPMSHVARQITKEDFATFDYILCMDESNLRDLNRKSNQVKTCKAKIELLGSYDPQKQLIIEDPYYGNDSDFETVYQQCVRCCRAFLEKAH
UniProt Q9BT22: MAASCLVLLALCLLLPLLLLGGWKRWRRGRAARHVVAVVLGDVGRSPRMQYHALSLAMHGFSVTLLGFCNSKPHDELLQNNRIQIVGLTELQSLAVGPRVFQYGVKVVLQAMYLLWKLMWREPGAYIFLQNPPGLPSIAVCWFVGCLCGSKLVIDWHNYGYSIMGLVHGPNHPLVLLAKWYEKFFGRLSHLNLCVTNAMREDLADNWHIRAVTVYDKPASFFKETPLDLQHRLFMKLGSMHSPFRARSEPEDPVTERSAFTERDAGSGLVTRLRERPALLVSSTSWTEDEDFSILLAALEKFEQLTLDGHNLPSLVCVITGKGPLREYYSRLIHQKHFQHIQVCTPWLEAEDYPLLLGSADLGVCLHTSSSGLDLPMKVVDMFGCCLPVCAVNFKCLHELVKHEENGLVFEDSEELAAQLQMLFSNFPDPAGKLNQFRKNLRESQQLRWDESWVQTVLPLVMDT
UniProt Q0VD83: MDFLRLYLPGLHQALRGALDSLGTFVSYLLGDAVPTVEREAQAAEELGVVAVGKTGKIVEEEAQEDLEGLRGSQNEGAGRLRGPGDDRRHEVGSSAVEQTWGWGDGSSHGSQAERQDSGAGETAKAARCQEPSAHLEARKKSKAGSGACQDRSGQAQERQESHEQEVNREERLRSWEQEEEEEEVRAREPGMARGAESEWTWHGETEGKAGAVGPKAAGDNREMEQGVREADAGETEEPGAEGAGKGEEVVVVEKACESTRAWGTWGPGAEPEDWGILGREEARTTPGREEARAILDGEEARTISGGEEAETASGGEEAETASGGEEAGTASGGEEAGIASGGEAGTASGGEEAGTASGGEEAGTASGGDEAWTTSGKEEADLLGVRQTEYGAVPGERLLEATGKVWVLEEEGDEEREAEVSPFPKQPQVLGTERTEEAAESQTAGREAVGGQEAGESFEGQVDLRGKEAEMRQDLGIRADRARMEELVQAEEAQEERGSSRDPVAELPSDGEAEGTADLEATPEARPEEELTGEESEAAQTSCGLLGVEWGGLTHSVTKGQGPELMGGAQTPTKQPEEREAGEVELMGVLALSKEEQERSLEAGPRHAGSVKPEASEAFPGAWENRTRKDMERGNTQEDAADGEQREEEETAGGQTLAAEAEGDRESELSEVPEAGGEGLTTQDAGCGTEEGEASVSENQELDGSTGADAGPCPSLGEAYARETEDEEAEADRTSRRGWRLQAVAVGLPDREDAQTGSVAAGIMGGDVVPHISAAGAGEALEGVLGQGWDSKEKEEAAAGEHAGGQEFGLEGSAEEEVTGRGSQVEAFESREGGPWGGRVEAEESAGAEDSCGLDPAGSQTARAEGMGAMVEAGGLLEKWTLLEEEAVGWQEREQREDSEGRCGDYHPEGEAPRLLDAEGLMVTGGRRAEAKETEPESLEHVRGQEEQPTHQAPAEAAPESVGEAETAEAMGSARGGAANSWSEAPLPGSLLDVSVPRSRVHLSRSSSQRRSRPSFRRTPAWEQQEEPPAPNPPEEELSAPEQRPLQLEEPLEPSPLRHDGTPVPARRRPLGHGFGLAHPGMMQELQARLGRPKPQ
UniProt Q9NXW9: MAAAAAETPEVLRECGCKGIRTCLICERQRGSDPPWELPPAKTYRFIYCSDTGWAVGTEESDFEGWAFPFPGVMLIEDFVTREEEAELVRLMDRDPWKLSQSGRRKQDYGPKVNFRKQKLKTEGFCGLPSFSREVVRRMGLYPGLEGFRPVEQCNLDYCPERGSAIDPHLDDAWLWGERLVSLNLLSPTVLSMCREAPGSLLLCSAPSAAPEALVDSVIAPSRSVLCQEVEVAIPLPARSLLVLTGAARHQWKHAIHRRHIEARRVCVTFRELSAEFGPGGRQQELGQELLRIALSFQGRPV
UniProt P04114: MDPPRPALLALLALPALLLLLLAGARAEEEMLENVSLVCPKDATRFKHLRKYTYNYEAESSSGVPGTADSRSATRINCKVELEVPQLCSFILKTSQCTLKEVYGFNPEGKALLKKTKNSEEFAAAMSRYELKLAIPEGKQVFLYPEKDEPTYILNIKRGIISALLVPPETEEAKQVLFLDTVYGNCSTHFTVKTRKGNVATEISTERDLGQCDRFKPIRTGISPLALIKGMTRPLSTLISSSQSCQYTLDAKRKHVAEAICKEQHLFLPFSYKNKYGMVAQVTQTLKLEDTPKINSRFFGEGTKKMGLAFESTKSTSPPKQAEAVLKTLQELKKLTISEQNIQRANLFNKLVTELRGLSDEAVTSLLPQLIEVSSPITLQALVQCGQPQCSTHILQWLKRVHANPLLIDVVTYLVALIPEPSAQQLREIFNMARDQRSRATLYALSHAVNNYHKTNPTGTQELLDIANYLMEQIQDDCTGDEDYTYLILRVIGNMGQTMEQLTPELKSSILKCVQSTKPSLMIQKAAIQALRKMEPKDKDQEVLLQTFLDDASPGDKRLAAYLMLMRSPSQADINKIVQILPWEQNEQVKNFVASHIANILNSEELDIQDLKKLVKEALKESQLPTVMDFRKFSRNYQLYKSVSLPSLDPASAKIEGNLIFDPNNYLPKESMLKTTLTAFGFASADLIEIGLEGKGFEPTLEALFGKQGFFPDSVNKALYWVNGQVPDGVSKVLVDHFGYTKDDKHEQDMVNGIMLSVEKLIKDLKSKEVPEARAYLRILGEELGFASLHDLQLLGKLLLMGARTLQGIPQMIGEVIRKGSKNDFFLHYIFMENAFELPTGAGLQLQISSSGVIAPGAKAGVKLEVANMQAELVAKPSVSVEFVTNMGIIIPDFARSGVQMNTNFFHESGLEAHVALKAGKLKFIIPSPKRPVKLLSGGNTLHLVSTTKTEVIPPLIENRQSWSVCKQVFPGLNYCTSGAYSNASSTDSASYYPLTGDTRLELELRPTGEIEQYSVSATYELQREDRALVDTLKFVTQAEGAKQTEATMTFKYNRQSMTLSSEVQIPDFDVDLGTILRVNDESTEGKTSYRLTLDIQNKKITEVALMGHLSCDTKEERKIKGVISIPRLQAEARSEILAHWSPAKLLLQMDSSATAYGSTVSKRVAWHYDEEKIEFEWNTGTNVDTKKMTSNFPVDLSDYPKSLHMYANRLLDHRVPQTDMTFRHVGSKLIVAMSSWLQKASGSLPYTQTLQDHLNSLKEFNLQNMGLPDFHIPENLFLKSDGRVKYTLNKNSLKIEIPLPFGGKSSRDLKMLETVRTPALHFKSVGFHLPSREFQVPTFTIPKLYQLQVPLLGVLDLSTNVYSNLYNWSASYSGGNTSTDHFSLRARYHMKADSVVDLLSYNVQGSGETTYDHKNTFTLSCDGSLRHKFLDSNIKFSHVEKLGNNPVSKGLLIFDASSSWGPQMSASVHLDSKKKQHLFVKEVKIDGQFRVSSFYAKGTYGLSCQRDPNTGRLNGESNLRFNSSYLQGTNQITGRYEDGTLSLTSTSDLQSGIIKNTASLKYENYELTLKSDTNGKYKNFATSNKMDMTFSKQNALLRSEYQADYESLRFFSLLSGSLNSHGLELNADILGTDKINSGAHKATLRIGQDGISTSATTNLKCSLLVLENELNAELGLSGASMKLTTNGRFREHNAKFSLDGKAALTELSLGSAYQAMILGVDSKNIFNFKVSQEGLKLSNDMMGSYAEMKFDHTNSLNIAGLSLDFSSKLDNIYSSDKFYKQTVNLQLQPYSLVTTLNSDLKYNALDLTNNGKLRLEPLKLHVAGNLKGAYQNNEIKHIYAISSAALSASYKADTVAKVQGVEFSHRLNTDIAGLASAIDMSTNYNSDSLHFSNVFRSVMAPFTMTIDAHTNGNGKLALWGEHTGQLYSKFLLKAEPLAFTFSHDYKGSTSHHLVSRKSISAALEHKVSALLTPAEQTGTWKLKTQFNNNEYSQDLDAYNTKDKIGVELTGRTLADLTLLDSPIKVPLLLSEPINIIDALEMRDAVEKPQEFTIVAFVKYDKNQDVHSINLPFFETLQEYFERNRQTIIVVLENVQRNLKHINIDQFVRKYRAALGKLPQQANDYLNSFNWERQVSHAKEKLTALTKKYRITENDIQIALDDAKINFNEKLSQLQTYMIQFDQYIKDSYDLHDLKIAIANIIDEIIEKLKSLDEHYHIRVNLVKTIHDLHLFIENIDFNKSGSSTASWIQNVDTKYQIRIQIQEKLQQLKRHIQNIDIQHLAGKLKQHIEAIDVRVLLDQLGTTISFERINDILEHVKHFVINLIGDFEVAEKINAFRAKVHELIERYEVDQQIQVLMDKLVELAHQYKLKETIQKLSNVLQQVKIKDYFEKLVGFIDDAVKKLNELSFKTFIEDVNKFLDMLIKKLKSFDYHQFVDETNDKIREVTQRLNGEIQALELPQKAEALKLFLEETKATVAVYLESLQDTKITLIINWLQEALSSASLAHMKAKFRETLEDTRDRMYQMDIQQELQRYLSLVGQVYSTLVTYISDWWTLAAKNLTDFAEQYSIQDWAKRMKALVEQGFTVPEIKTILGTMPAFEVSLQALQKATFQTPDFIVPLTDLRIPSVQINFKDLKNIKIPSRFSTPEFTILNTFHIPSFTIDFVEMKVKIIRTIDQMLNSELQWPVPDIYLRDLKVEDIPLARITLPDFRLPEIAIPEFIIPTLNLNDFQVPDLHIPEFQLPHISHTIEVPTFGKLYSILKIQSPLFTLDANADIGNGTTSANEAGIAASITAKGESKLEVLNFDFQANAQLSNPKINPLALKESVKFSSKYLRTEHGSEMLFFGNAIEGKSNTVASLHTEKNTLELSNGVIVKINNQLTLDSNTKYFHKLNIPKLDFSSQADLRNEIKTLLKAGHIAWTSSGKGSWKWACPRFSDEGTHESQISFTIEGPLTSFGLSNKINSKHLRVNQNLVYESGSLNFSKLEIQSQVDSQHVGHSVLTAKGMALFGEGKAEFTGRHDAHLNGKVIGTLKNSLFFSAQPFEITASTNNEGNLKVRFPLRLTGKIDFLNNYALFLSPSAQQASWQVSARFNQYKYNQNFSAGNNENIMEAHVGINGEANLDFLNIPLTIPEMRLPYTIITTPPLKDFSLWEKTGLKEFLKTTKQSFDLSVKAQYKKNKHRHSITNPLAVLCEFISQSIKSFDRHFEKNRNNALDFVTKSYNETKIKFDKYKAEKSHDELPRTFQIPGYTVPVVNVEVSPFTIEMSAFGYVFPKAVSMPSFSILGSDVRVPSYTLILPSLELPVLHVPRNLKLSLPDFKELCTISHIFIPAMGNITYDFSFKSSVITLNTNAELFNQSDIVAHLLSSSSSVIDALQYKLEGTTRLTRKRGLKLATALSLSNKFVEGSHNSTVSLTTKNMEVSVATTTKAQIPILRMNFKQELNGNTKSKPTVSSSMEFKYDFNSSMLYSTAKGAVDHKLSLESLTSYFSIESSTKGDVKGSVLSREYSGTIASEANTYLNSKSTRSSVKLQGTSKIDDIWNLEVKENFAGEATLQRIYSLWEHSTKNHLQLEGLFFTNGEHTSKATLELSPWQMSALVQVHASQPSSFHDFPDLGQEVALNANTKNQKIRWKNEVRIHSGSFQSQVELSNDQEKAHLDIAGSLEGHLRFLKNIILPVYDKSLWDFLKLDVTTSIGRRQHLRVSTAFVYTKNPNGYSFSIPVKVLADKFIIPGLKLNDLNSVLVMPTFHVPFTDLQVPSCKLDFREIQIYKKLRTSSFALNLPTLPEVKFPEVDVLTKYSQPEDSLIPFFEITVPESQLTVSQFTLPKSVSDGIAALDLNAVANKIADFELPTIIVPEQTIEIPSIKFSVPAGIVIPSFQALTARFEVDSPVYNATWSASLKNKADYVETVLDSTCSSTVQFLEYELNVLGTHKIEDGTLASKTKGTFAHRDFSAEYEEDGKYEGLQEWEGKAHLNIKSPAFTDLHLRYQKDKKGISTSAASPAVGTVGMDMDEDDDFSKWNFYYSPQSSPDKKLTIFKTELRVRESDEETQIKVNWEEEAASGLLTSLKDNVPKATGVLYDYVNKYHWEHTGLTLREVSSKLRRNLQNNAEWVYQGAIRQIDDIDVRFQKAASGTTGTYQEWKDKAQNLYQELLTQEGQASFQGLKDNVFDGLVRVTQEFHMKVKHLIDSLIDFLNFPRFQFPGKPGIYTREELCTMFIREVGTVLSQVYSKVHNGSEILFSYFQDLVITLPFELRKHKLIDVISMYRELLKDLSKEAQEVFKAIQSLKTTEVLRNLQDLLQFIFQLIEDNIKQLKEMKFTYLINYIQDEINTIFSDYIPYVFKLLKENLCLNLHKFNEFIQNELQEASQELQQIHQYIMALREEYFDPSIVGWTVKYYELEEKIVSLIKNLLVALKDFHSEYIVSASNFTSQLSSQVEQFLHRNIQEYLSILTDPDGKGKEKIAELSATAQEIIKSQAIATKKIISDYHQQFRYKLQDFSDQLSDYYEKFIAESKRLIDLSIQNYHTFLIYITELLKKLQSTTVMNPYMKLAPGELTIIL

Compound: COc1ccc(Cn2ccc3ccc(C(=O)NO)cc32)cc1
Test: dose-dependent thermal stabilisation call (2D-TPP, DLPTP, 10% FDR) (binary (1 = stabilised)); higher = stabilised by the compound
Conditions: system: HL-60 intact cells; concentration range 0.04-10 µM

Row | Target | dose-dependent thermal stabilisation call
1 | ANAPC2 (UniProt Q9UJX6) | inactive: 0
2 | AK2 (UniProt P54819) | inactive: 0
3 | AMDHD2 (UniProt Q9Y303) | inactive: 0
4 | AP4B1 (UniProt Q9Y6B7) | inactive: 0
5 | AKAP2 | inactive: 0
6 | AQR (UniProt O60306) | inactive: 0
7 | ARID1A (UniProt O14497) | inactive: 0
8 | ARF3 (UniProt P61204) | inactive: 0
9 | ADAT3 (UniProt Q96EY9) | inactive: 0
10 | ACTR1A (UniProt P61163) | inactive: 0
11 | ACP6 (UniProt Q9NPH0) | inactive: 0
12 | ARID1B (UniProt Q8NFD5) | inactive: 0
13 | ADAM22 (UniProt Q9P0K1) | inactive: 0
14 | ANKRD28 (UniProt O15084) | inactive: 0
15 | AMFR (UniProt Q9UKV5) | inactive: 0
16 | ARD1A (UniProt P41227) | inactive: 0
17 | ARF5 (UniProt P84085) | inactive: 0
18 | AP2S1 (UniProt P53680) | inactive: 0
19 | ANKRD27 (UniProt Q96NW4) | inactive: 0

Nos. 13–15, reprinted for reference:
Row | Target | dose-dependent thermal stabilisation call
13 | ADAM22 (UniProt Q9P0K1) | inactive: 0
14 | ANKRD28 (UniProt O15084) | inactive: 0
15 | AMFR (UniProt Q9UKV5) | inactive: 0

The list continues:

Row | Target | dose-dependent thermal stabilisation call
20 | ALKBH3 (UniProt Q96Q83) | inactive: 0
21 | AGPAT5 (UniProt Q9NUQ2) | inactive: 0
22 | ACP1 (UniProt P24666) | inactive: 0
23 | ADK (UniProt P55263) | active: 1
24 | ACAT1 (UniProt P24752) | inactive: 0
25 | ALG1 (UniProt Q9BT22) | inactive: 0
26 | ANXA2 (UniProt P07355) | inactive: 0
27 | AHCYL1 (UniProt O43865) | inactive: 0
28 | ADAM15 (UniProt Q13444) | inactive: 0
29 | APOB48R (UniProt Q0VD83) | inactive: 0
30 | APPL1 (UniProt Q9UKG1) | inactive: 0
31 | AGRN (UniProt O00468) | inactive: 0
32 | ANXA5 (UniProt P08758) | inactive: 0
33 | ADAM10 (UniProt O14672) | inactive: 0
34 | ARHGAP25 (UniProt P42331) | inactive: 0
35 | ALKBH4 (UniProt Q9NXW9) | inactive: 0
36 | AFG3L2 (UniProt Q9Y4W6) | inactive: 0
37 | APOB (UniProt P04114) | inactive: 0
